Assay results reported in PMC3590144, “Determination of the Structure of the Catabolic N-Succinylornithine Transaminase (AstC) from Escherichia coli” (PLoS ONE, 2013).
No constants are given. Whether binding was seen depends on the method and setting. Some binding calls cover weakened binding; strength is not graded here.

The chains behind the UniProt entries cited, without tags or fusion partners.
UniProt P77581: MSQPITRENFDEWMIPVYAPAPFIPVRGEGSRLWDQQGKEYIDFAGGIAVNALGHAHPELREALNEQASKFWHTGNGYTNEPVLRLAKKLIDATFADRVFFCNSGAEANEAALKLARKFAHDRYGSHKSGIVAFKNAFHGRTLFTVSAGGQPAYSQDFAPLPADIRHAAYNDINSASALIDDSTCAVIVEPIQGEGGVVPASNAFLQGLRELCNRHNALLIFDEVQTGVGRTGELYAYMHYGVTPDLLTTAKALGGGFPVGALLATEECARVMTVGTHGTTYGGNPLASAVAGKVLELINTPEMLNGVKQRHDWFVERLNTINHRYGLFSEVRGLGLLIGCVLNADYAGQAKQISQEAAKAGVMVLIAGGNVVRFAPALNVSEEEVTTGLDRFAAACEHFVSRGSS

Target: holo-AstC, N-succinylornithine transaminase from Escherichia coli reconstituted with PLP (E. coli (BL21 DE3)) (UniProt P77581)
Test: crystal structure; holo-AstC with PLP bound; space group C2, 4 molecules (two full dimers) in the asymmetric unit, 2.20 Å; grown in 1.17 M sodium malonate pH 7, 0.09 M Tris chloride pH 8.0 at 8 °C; both purified

binding: binds
Substance: holo-AstC, N-succinylornithine transaminase from Escherichia coli reconstituted with PLP (from UniProt P77581 1-406) (enzyme)
